# According to the supplement of paper PMC8728848:
# Some of the results follow.
# B1: PX14343E-bfa-545-24-545 (Bacteroides fragilis) (protein)
# chain: LDRYPQEELSDGSFWKTPDDANKVVSDLYGYLSTWDQDNDINSDNATMGIKWAAGNVSKGIYDPADQGWSGDYANVRQCNLILSKIDEIPDYPEADKTKALGQVYFFRAYIYFNLIRSFGDVPYIDKPLDLKDMEGITRMPRAEVYEKIMADFDKAIAALPTEWGASDYGRVTKGAAMAMKARAALYYGNWDTAATEAKNVMDLGLYELYDKDNTGKYAELFWEKADGCDEFILVTQFNYPDKTHYLMGWECFPTKGWGGMNPTQSLVDAFEDSEGAPISKSKIYDPTDPFKNRDPRLEVDILHDGEEMYGVTIKVAPLASSGSTGINQHNDATETGYYGQKWLDPSLDPLSDGWNMGKDWVHIRYAEVLLTYAEAKNELQGLDPEAFDAVNQVRRRVGMPELQNTDPSKPTYCATQDDLRQRIRNEWRVEFCLEGGKRMWDIRRWGIAKDVLNAPFEGLKYKIVDNPNDPDKKVDGGKMCILYQGDPIILSGSRYSDNNYLFPVPQSEIDLNPALTQNPGY
# Tests used:
# Test in all cases: glycan array binding signal (z-score within array); higher = stronger binding
# Conditions in all cases: glycan notation: IUPAC condensed, linker removed
# [1] = biological target: Neu5Ac(a2-6)Gal(b1-4)GlcNAc(b1-3)Gal(b1-4)GlcNAc(b1-3)Gal(b1-4)GlcNAc(b1-2)Man(a1-3)[Neu5Ac(a2-6)Gal(b1-4)GlcNAc(b1-3)Gal(b1-4)GlcNAc(b1-3)Gal(b1-4)GlcNAc(b1-2)Man(a1-6)]GalNAc
# In short: (§1)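 Glycan array binding is given as a within-array Z-score, which can be read as non-binding when negative. The arrays, 3228 of them, came from the Consortium for Functional Glycomics database and were retained only where the protein sequence was available. Z-scores were averaged across arrays of the same protein sequence at different concentrations or buffers and across linkers.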
# [2] = biological target: Neu5Ac(a2-6)Gal(b1-4)GlcNAc(b1-3)Gal(b1-4)GlcNAc(b1-3)GalNAc
# In short: as §1
# [3] = biological target: Neu5Ac(a2-6)Gal(b1-4)GlcNAc(b1-3)Gal(b1-4)GlcNAc(b1-3)[Neu5Ac(a2-6)Gal(b1-4)GlcNAc(b1-3)Gal(b1-4)GlcNAc(b1-6)]GalNAc
# In short: as §1
# [4] = biological target: Neu5Ac(a2-6)Gal(b1-4)GlcNAc(b1-3)Gal(b1-4)GlcNAc(b1-6)[Gal(b1-3)]GalNAc
# In short: as §1
# [5] = biological target: Neu5Ac(a2-6)Gal(b1-4)GlcNAc(b1-3)Gal(b1-4)[Fuc(a1-3)]GlcNAc(b1-3)Gal(b1-4)[Fuc(a1-3)]GlcNAc
# In short: as §1
# [6] = biological target: Neu5Ac(a2-6)Gal(b1-4)GlcNAc(b1-3)GalNAc
# In short: as §1
# [7] = biological target: Neu5Ac(a2-6)Gal(b1-4)GlcNAc(b1-3)[Neu5Ac(a2-6)Gal(b1-4)GlcNAc(b1-6)]GalNAc
# In short: as §1
# [8] = biological target: Neu5Ac(a2-6)Gal(b1-4)GlcNAc(b1-6)GalNAc
# In short: as §1
# [9] = biological target: Neu5Ac(a2-6)Gal(b1-4)GlcNAc(b1-6)[Gal(b1-3)GlcNAc(b1-3)]Gal(b1-4)Glc
# In short: as §1
# [10] = biological target: Neu5Ac(a2-6)Gal(b1-4)GlcNAc(b1-6)[Gal(b1-3)]GalNAc
# In short: as §1
# [11] = biological target: Neu5Ac(a2-6)Gal(b1-4)GlcNAc6S
# In short: as §1
# [12] = biological target: Neu5Ac(a2-6)GalNAc
# In short: as §1
# [13] = biological target: Neu5Ac(a2-6)GalNAc(b1-4)GlcNAc
# In short: as §1
# [14] = biological target: Neu5Ac(a2-6)GalNAc(b1-4)GlcNAc6S
# In short: as §1
# [15] = biological target: Neu5Ac(a2-6)GlcNAc(b1-4)GlcNAc
# In short: as §1
# [16] = biological target: Neu5Ac(a2-6)GlcNAc(b1-4)GlcNAc(b1-4)GlcNAc
# In short: as §1
# [17] = biological target: Neu5Ac(a2-8)Neu5Ac
# In short: as §1
# [18] = biological target: Neu5Ac(a2-8)Neu5Ac(a2-3)Gal(b1-3)GalNAc(b1-4)[Neu5Ac(a2-3)]Gal(b1-4)Glc
# In short: as §1
# [19] = biological target: Neu5Ac(a2-8)Neu5Ac(a2-3)Gal(b1-3)GalNAc(b1-4)[Neu5Ac(a2-8)Neu5Ac(a2-3)]Gal(b1-4)Glc
# In short: as §1
# [20] = biological target: Neu5Ac(a2-8)Neu5Ac(a2-3)Gal(b1-4)Glc
# In short: as §1
# [21] = biological target: Neu5Ac(a2-8)Neu5Ac(a2-3)Gal(b1-4)GlcNAc
# In short: as §1
# [22] = biological target: Neu5Ac(a2-8)Neu5Ac(a2-3)[Gal(b1-3)GalNAc(b1-4)]Gal(b1-4)Glc
# In short: as §1
# [23] = biological target: Neu5Ac(a2-8)Neu5Ac(a2-3)[GalNAc(b1-4)]Gal(b1-4)Glc
# In short: as §1
# [24] = biological target: Neu5Ac(a2-8)Neu5Ac(a2-8)Neu5Ac
# In short: as §1
# [25] = biological target: Neu5Ac(a2-8)Neu5Ac(a2-8)Neu5Ac(a2-3)Gal(b1-4)Glc
# In short: as §1
# [26] = biological target: Neu5Ac(a2-8)Neu5Ac(a2-8)Neu5Ac(a2-3)[Gal(b1-3)GalNAc(b1-4)]Gal(b1-4)Glc
# In short: as §1
# [27] = biological target: Neu5Ac(a2-8)Neu5Ac(a2-8)Neu5Ac(a2-3)[GalNAc(b1-4)]Gal(b1-4)Glc
# In short: as §1
# [28] = biological target: Neu5Ac(a2-8)Neu5Ac(a2-8)Neu5Ac(a2-8)Neu5Ac(a2-3)[GalNAc(b1-4)]Gal(b1-4)Glc
# In short: as §1
# [29] = biological target: Neu5Ac(a2-8)Neu5Gc(a2-3)Gal(b1-4)GlcNAc
# In short: as §1
# [30] = biological target: Neu5Ac(b2-6)Gal(b1-4)GlcNAc
# In short: as §1
# [31] = biological target: Neu5Ac(b2-6)GalNAc
# In short: as §1
# [32] = biological target: Neu5Ac9Ac(a2-3)Gal(b1-3)GlcNAc
# In short: as §1
# [33] = biological target: Neu5Ac9Ac(a2-3)Gal(b1-4)GlcNAc
# In short: as §1
# [34] = biological target: Neu5Ac9Ac(a2-6)Gal(b1-4)GlcNAc
# In short: as §1
# [35] = biological target: Neu5Gc(a2-3)Gal(b1-3)GlcNAc
# In short: as §1
# [36] = biological target: Neu5Gc(a2-3)Gal(b1-3)[Fuc(a1-4)]GlcNAc
# In short: as §1
# [37] = biological target: Neu5Gc(a2-3)Gal(b1-4)Glc
# In short: as §1
# [38] = biological target: Neu5Gc(a2-3)Gal(b1-4)GlcNAc
# In short: as §1
# [39] = biological target: Neu5Gc(a2-3)Gal(b1-4)GlcNAc(b1-3)Gal(b1-4)GlcNAc(b1-2)Man(a1-3)[Neu5Gc(a2-3)Gal(b1-4)GlcNAc(b1-3)Gal(b1-4)GlcNAc(b1-2)Man(a1-6)]Man(b1-4)GlcNAc(b1-4)GlcNAc
# In short: as §1
# [40] = biological target: Neu5Gc(a2-3)Gal(b1-4)[Fuc(a1-3)]GlcNAc
# In short: as §1
# [41] = biological target: Neu5Gc(a2-6)Gal(b1-4)GlcNAc
# In short: as §1
# [42] = biological target: Neu5Gc(a2-6)GalNAc
# In short: as §1
# [43] = biological target: Neu5Gc(a2-8)Neu5Ac(a2-3)Gal(b1-4)GlcNAc
# In short: as §1
# [44] = biological target: Neu5Gc(a2-8)Neu5Gc(a2-3)Gal(b1-4)GlcNAc
# In short: as §1
# [45] = biological target: Neu5Gc(a2-8)Neu5Gc(a2-3)Gal(b1-4)GlcNAc(b1-3)Gal(b1-4)GlcNAc
# In short: as §1
binder,measurement,setting,value
B1,glycan array binding signal (z-score),[1],1.25
same,glycan array binding signal (z-score),[2],-0.076
same,glycan array binding signal (z-score),[3],2.92
same,glycan array binding signal (z-score),[4],-0.008
same,glycan array binding signal (z-score),[5],0.319
same,glycan array binding signal (z-score),[6],0.064
same,glycan array binding signal (z-score),[7],2.89
same,glycan array binding signal (z-score),[8],0.56
same,glycan array binding signal (z-score),[9],-0.484
same,glycan array binding signal (z-score),[10],-0.085
same,glycan array binding signal (z-score),[11],-0.277
same,glycan array binding signal (z-score),[12],-0.291
same,glycan array binding signal (z-score),[13],0.426
same,glycan array binding signal (z-score),[14],0.135
same,glycan array binding signal (z-score),[15],-0.557
same,glycan array binding signal (z-score),[16],-0.709
same,glycan array binding signal (z-score),[17],-0.672
same,glycan array binding signal (z-score),[18],-0.456
same,glycan array binding signal (z-score),[19],-0.28
same,glycan array binding signal (z-score),[20],-0.996
same,glycan array binding signal (z-score),[21],-0.701
same,glycan array binding signal (z-score),[22],0.458
same,glycan array binding signal (z-score),[23],0.486
same,glycan array binding signal (z-score),[24],-0.367
same,glycan array binding signal (z-score),[25],0.562
same,glycan array binding signal (z-score),[26],-0.399
same,glycan array binding signal (z-score),[27],-0.298
same,glycan array binding signal (z-score),[28],2.6
same,glycan array binding signal (z-score),[29],-0.097
same,glycan array binding signal (z-score),[30],-0.513
same,glycan array binding signal (z-score),[31],-0.887
same,glycan array binding signal (z-score),[32],0.462
same,glycan array binding signal (z-score),[33],-0.239
same,glycan array binding signal (z-score),[34],-0.75
same,glycan array binding signal (z-score),[35],-0.465
same,glycan array binding signal (z-score),[36],0.107
same,glycan array binding signal (z-score),[37],-0.205
same,glycan array binding signal (z-score),[38],0.54
same,glycan array binding signal (z-score),[39],-0.44
same,glycan array binding signal (z-score),[40],-0.376
same,glycan array binding signal (z-score),[41],-0.103
same,glycan array binding signal (z-score),[42],-0.46
same,glycan array binding signal (z-score),[43],-0.678
same,glycan array binding signal (z-score),[44],-1.07
same,glycan array binding signal (z-score),[45],-1.12

# An excerpt of these results, with bars between the fields:
binder | measurement | setting | value
B1 | glycan array binding signal (z-score) | [20] | -0.996
same | glycan array binding signal (z-score) | [21] | -0.701
